No constants are given. Whether binding was seen depends on the method and setting. Some entries that bind do so weakly or less than the wild type. Each block holds one substance with its values, some of them ahead of it.
Legend:
[1] = target: HSP70 (mouse, endogenous, from organ tissue of tumor bearing mice or Meth A fibrosarcoma) (mouse) (UniProt P17879); experiment: glutaraldehyde cross-linking of the HOP TPR1 eluate, SDS-PAGE gel shift and Western blot; same cross-linked band, direct partner not resolved
[2] = target: HSP70 (mouse, endogenous, from organ tissue of tumor bearing mice or Meth A fibrosarcoma) (mouse) (UniProt P17879); experiment: affinity chromatography of mouse organ homogenate, SDS-PAGE of eluate
[3] = target: HSP90 (mouse, endogenous, isoform not stated) (mouse) (UniProt Q71LX8); experiment: as above
[4] = target: HSP70 (mouse, endogenous, from organ tissue of tumor bearing mice or Meth A fibrosarcoma) (mouse) (UniProt P17879); experiment: affinity chromatography of mouse organ homogenate, LC/MS/MS of gel bands of eluate
[5] = target: HSP90 (mouse, endogenous, isoform not stated) (mouse) (UniProt Q71LX8); experiment: as above
[6] = target: HSP90 (mouse, endogenous, isoform not stated) (mouse) (UniProt Q71LX8); experiment: affinity chromatography of mouse organ homogenate, SDS-PAGE of fractions
[7] = target: HSP90 (mouse, endogenous, isoform not stated) (mouse) (UniProt Q71LX8); experiment: affinity chromatography of mouse tissue homogenate, NaCl gradient elution, SDS-PAGE
[8] = target: HSP70 (mouse, endogenous, from organ tissue of tumor bearing mice or Meth A fibrosarcoma) (mouse) (UniProt P17879); experiment: glutaraldehyde cross-linking of the HOP TPR1 eluate, SDS-PAGE gel shift and Western blot
[9] = target: HSP70 (mouse, endogenous, from organ tissue of tumor bearing mice or Meth A fibrosarcoma) (mouse) (UniProt P17879); experiment: affinity chromatography of tissue homogenate, SDS-PAGE of eluate
[10] = target: HSP70 (mouse, endogenous, from organ tissue of tumor bearing mice or Meth A fibrosarcoma) (mouse) (UniProt P17879); experiment: affinity chromatography of mouse organ homogenate, Western blot of eluate
[11] = target: HSP70 (mouse, endogenous, from organ tissue of tumor bearing mice or Meth A fibrosarcoma) (mouse) (UniProt P17879); experiment: affinity chromatography of Meth A homogenate, LC/MS/MS of gel bands of eluate
[12] = target: HSP70 (mouse, endogenous, from organ tissue of tumor bearing mice or Meth A fibrosarcoma) (mouse) (UniProt P17879); experiment: affinity chromatography of gp96-depleted Meth A homogenate, SDS-PAGE of eluate
[13] = target: HSP70 (mouse, endogenous, from organ tissue of tumor bearing mice or Meth A fibrosarcoma) (mouse) (UniProt P17879); experiment: affinity chromatography of mouse organ homogenate, SDS-PAGE and Western blot of eluate
[14] = target: HSP40 (mouse, endogenous) (mouse) (UniProt Q9QYJ3); experiment: affinity chromatography of mouse tissue homogenate, Western blot of eluate; co-isolated, direct or indirect not resolved

Protein sequences, listed by entry. Tags and fused reporters are not part of them. Residues count along the entry.
UniProt P17879, residues 2-642: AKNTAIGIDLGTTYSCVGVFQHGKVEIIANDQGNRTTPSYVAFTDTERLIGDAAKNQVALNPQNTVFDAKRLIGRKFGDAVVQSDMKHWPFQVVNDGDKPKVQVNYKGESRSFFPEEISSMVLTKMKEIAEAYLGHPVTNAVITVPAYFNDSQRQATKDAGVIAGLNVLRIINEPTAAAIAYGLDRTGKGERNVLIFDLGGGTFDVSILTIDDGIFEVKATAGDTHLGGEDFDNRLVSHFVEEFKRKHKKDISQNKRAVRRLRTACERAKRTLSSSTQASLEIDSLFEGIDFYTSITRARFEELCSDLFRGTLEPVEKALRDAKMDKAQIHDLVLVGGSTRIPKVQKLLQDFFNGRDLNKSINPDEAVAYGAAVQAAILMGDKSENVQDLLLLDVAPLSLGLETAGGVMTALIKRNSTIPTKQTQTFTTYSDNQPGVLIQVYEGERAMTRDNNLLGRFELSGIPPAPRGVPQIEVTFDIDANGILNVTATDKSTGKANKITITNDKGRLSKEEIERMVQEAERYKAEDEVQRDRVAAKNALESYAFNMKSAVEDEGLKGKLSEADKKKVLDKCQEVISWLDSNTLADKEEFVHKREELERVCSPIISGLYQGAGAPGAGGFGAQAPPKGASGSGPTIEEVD
UniProt Q61699, residues 2-858: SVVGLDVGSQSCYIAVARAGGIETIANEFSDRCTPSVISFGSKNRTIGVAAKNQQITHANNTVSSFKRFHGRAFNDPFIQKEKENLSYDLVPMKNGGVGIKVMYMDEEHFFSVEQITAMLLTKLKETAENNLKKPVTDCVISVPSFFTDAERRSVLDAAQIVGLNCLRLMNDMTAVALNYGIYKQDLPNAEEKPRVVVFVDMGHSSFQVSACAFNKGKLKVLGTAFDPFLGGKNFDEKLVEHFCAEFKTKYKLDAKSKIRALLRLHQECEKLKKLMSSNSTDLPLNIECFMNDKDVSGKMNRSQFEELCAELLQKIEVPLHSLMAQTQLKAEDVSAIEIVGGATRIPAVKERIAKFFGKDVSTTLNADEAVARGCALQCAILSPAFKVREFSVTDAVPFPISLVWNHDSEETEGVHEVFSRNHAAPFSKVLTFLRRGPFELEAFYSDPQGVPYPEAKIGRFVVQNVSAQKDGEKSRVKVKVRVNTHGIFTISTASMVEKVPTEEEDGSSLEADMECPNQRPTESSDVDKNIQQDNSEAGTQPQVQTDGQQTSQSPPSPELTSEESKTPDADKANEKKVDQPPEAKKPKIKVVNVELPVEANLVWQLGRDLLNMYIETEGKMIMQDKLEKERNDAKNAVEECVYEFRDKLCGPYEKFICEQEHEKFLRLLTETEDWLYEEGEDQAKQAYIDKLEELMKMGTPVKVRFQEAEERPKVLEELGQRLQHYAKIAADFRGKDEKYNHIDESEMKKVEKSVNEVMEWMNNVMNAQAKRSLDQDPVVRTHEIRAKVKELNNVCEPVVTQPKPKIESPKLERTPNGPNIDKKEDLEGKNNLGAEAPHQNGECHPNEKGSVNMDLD

binding [6]: binds
binding [7]: binds
Substance: HOP TPR2a (amino acid residues 223 to 352 of human HOP) with C-terminal histidine tag (from UniProt P31948 223-352)

binding [8]: binds
Substance: HSP110 (mouse, endogenous) (from UniProt Q61699 2-858)

Second part, the substance before the results:

Substance: HSP40 (mouse, endogenous) (from UniProt Q9QYJ3 1-340)
binding [1]: binds

Substance: HOP TPR1/2a (amino acid residues 1 to 352 of human HOP) with C-terminal histidine tag (from UniProt P31948 1-352)
binding [2]: binds
binding [3]: binds
binding [4]: binds
binding [5]: binds

Substance: HOP TPR1 (amino acid residues 1 to 118 of human HOP) with C-terminal histidine tag (from UniProt P31948 1-118)
binding [9]: binds
binding [10]: binds
binding [11]: binds
binding [12]: binds
binding [13]: binds
binding [14]: binds
